Values are relative to the signal before dosing, not to a vehicle control; the signal also falls without drug.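 Labels refer to human fibroblasts, largely primary: uterine (C12385, HUF), lung (H6013), bone (Hs27A), adrenal (HADF), skin (WS1), plus mammary HMF and breast cancer-associated Hs343T. Cancer lines are basal-like or mesenchymal-like triple-negative breast cancer. The paper counts as hits responses shifting over 3x the replicate standard deviation. The tissue of the other fibroblasts is not given here.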
Tested on: Hs578T
Experiment: relative JC-1 red fluorescence (viability) vs pre-drug, coculture with fibroblast (fraction); higher = more viable cancer cells
Settings: 0.1 µM
Protocol: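 JC-1 labelled TNBC cells cocultured 1:1 (1,500 cells each) with CellTrace Violet stained primary or stromal fibroblasts in 384-well plates in FluoroBrite medium, treated with one of 42 anticancer drugs at 0.1, 1, 10 or 100 uM. JC-1 red fluorescence (mitochondrial integrity in cancer cells only) was read by plate reader every 8 h for 72 h. Values are normalised to each well's pre-drug value. The stock of one drug was tenfold lower, so its dose labels may be too high.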

CN(C)CCOc1ccc(/C(=C(/CCCl)c2ccccc2)c2ccccc2)cc1 [Toremifene]
Settings	relative JC-1 red fluorescence
8 h	0.8897
16 h	0.7963
24 h	0.757
32 h	0.723
40 h	0.65376
48 h	0.617
56 h	0.58113
64 h	0.534
72 h	0.5178

relative JC-1 red fluorescence
Settings	8 h	16 h	24 h	32 h	40 h	48 h	56 h	64 h	72 h
coculture fibroblast: C12385	0.821	0.707	0.614	0.54276	0.476	0.428	0.392	0.372	0.359
coculture fibroblast: H6013	0.819	0.7687	0.715	0.6816	0.644	0.62	0.594	0.595	0.561
coculture fibroblast: H6019	0.778	0.695	0.647	0.559	0.515	0.485	0.457	0.437	0.416
coculture fibroblast: H6076	0.917	0.855	0.808	0.787	0.739	0.737	0.713	0.708	0.707
coculture fibroblast: H6231	0.9168	0.786	0.704	0.664	0.5921	0.566	0.518	0.504	0.484
coculture fibroblast: HADF	0.854	0.779	0.703	0.654	0.608	0.578	0.547	0.539	0.5192
coculture fibroblast: HCFa	0.823	0.741	0.669	0.618	0.551	0.52	0.486	0.467	0.423
coculture fibroblast: HCPF	0.911	0.812	0.764	0.7399	0.674	0.6568	0.628	0.597	0.577
coculture fibroblast: HHSteC	0.865	0.75	0.681	0.613	0.548	0.518	0.484	0.462	0.432
coculture fibroblast: HMF	0.858	0.761	0.706	0.6822	0.629	0.602	0.572	0.558	0.54
coculture fibroblast: HPFa	0.9099	0.81	0.7252	0.657	0.595	0.554	0.506	0.475	0.43
coculture fibroblast: HUF	0.843	0.7225	0.7027	0.5994	0.545	0.5116	0.4852	0.48266	0.479
coculture fibroblast: Hs27A	0.909	0.8197	0.7888	0.748	0.689	0.677	0.636	0.629	0.578
coculture fibroblast: Hs343T	0.895	0.786	0.731	0.71	0.64	0.615	0.579	0.549	0.55
coculture fibroblast: WS1	0.841	0.731	0.66	0.557	0.489	0.467	0.435	0.428	0.424

— the supplement of paper PMC6078165
